Results published in PubChem BioAssay AID651640 (Broad Institute, 2012).
Screen size: about 350,000 compounds; about 6,000 (1.7%) were called active. The inconclusive results got no clear call from the source; some entries with a clear call stand among them for comparison. Rule as the data show it: active = CPE inhibition above about 20% (passing the limit was not always enough); inconclusive = no clear call, values can overlap the other calls; tested in BHK-21 cells. Where a structure was tested more than once in an assay, its records may differ in their call.

Assay: protection of cells from dengue 2 killing – plate reader, single concentration, primary screen (AID 651640);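 also: 0% = median of neutral control wells and 100% = median of positive control wells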
Conditions: DENV2-infected cells, cytopathic effect rescue, at 9.99 µM, active compounds read high

Row | SMILES | CPE inhibition
1 | C[C@@H]1CN([C@@H](C)CO)C(=O)c2cc(NC(=O)NC3CCCCC3)ccc2O[C@H]1CN(C)C(=O)Nc1ccccc1 | inactive: 7.08%
2 | CN1C(=O)C(C)(C)c2cc(S(=O)(=O)N3CCC(C(=O)Nc4ccc(Cl)cc4)CC3)ccc21 | inconclusive: 25%
3 | Cc1ccc(NC(=O)CNC(c2ccccc2)c2ccccc2)c(F)c1 | inconclusive: 44.8%
4 | COCC(=O)Nc1ccc2c(c1)C(=O)N(C)C[C@@H](OC)[C@@H](C)CN(Cc1cccc(F)c1)[C@H](C)CO2 | inactive: -6.92%
5 | CCCc1cn(CC[C@H]2CC[C@H](NS(=O)(=O)c3ccccc3Cl)[C@@H](CO)O2)nn1 | inactive: 4.23%
6 | CN1CCN(C(=O)[C@H]2[C@H](CO)[C@H]3Cn4c(ccc(C5=CCCC5)c4=O)[C@@H]2N3S(C)(=O)=O)CC1 | inconclusive: 22%
7 | COc1cccc([C@@H]2CC=C(C(=O)O)CN2S(=O)(=O)c2ccc(C)cc2)c1 | inconclusive: 62.2%
8 | C[C@@H]1CN([C@H](C)CO)S(=O)(=O)c2ccc(C#CCN(C)C)cc2O[C@H]1CN(C)Cc1ccccc1F | inactive: -3.38%
9 | O=C(O)c1sccc1Oc1ccc(NS(=O)(=O)c2cccc(F)c2)cc1 | inconclusive: 30.4%
10 | COc1ccc(C(CNC(=O)c2cccc3cccnc23)N(C)C)cc1 (configuration not stated) | active: 45.7%
11 | CCOc1ccccc1N1CCN(C(=O)c2cc3ccccc3cc2OC)CC1 | inactive: -7.68%
12 | O=C(c1cccnc1)N(Cc1ccccc1)C(=O)c1cccnc1 | inconclusive: 34.5%
13 | CCNC(=O)C[C@@H]1CC[C@H]2[C@@H](COC[C@@H](O)CN2Cc2ccncc2)O1 | inactive: 3.72%
14 | CCN(c1ccccc1)S(=O)(=O)c1cccc(C(=O)N2CCN(S(=O)(=O)c3ccccc3)CC2)c1 | inconclusive: 24%
15 | C[C@@H]1CCCCO[C@H](CN(C)C(=O)c2ccccc2)[C@@H](C)CN([C@@H](C)CO)C(=O)c2cc(NC(=O)Nc3cccc4ccccc34)ccc2O1 | inconclusive: 21.6%
16 | CC(C)C(=O)Nc1ccc2c(c1)C(=O)N(C)[C@@H]1CC[C@H](CC(=O)NCc3ccccc3)O[C@H]1CO2 | inactive: 6.29%
17 | COc1cccc(-c2cccc(-c3nc(C(=O)NCc4ccc(Oc5ccccc5)cc4)cc4c3[C@@H](CCO)N(S(=O)C(C)(C)C)C4)c2)c1 (some centres not stated) | inconclusive: 28.5%
18 | CCOC(=O)C1CCCN(c2c(NCCc3ccc(S(N)(=O)=O)cc3)c(=O)c2=O)C1 (configuration not stated) | inconclusive: 50.6%
19 | COc1ccc(-c2cnc3c(c2)C(=O)N([C@H](C)CO)C[C@H](C)[C@@H](CN(C)Cc2cccnc2)O3)cc1 | inconclusive: 35.7%
20 | COC(=O)c1ccccc1-c1ccc(/C=N/NC(N)=O)o1 | inactive: 8.75%
21 | COc1ccc(NC(=O)N2[C@@H]3CNC[C@H]2C3c2ccc(/C=C/c3ccccc3)cc2)cc1 (some centres not stated) | active: 24.6%
22 | C[C@@H]1CN([C@H](C)CO)S(=O)(=O)c2ccc(C3=CCCC3)cc2O[C@@H]1CN(C)C | inconclusive: 33.4%
23 | Cc1ccnc(NC(=O)C(Cc2ccccc2)NC(=O)c2ccccc2)c1 (configuration not stated) | active: 38.1%
24 | CCOc1ccccc1NC(=O)CSc1ccc2nnc(-c3cccnc3)n2n1 | inconclusive: 20.9%

Molecules above that have a COOH group:
Row | SMILES | CPE inhibition
7 | COc1cccc([C@@H]2CC=C(C(=O)O)CN2S(=O)(=O)c2ccc(C)cc2)c1 | inconclusive: 62.2%
9 | O=C(O)c1sccc1Oc1ccc(NS(=O)(=O)c2cccc(F)c2)cc1 | inconclusive: 30.4%

Rewritten field by field: two of the compounds above
COC(=O)c1ccccc1-c1ccc(/C=N/NC(N)=O)o1
  CPE inhibition: inactive: 8.75%
COc1ccc(NC(=O)N2[C@@H]3CNC[C@H]2C3c2ccc(/C=C/c3ccccc3)cc2)cc1 (some centres not stated)
  CPE inhibition: active: 24.6%

Following part.

Row | SMILES | CPE inhibition
25 | Cc1n[nH]c(C)c1S(=O)(=O)N1CCN(S(=O)(=O)c2ccccc2C#N)CC1 | inconclusive: 48.3%
26 | C[C@@H]1CCCCO[C@@H](CN(C)C(=O)CCC(F)(F)F)[C@@H](C)CN([C@H](C)CO)C(=O)c2cc(NC(=O)CCCN(C)C)ccc2O1 | inconclusive: 48.1%
27 | COc1ccc(NC(=O)C2(C)Cc3c(-c4cccc(C(N)=O)c4)ccnc3O2)cn1 (configuration not stated) | inconclusive: 32.3%
28 | O=C(Nc1ccc2c(c1)[C@H]1C[C@H](CC(=O)N3CCCCC3)O[C@H](CO)[C@H]1O2)C1CCC1 | inactive: -1.49%
29 | COc1ccccc1S(=O)(=O)N[C@@H]1CC[C@@H](CCn2cc(C3CC3)nn2)O[C@H]1CO | inactive: 0.576%
30 | COc1ccc2c(c1)C(=O)O[C@@H](c1ccccc1)C[C@@H](O)C(=O)CC2 | active: 33.2%
31 | COc1ccc(S(=O)(=O)N2CCN(CCOc3ccc(Br)cc3)CC2)cc1OC | inactive: -13.6%
32 | Cc1c(Cl)cccc1NC(=O)CSc1nc(=O)n(CCCN2CCOCC2)c2c1CCCC2 | inconclusive: 35.7%
33 | O=C(NC(=S)NC1CCCCC1)c1ccccc1[N+](=O)[O-] | inconclusive: 53.1%
34 | CCC(c1nnnn1-c1ccc2c(c1)OCCO2)N1CCN(C)CC1 (configuration not stated) | inconclusive: 60.8%
35 | CN(CC(=O)Nc1cccc(F)c1)C(=O)c1ccccc1CCc1ccccc1 | active: 69.2%
36 | Cc1noc(C)c1NC(=O)N(C)C[C@H]1Oc2ccc(NC(=O)CCN3CCOCC3)cc2C(=O)N([C@@H](C)CO)C[C@H]1C | inconclusive: 33%
37 | CSc1nc(Cl)cc(=O)[nH]1 | inactive: -3.81%
38 | COc1cc(OC)cc(-c2c(C#Cc3ccsc3)c3cc(-c4cc(OC)c(OC)c(OC)c4)ccc3n2C)c1 | active: 37.9%
39 | O=c1[nH]nc(-c2cc(-c3ccccc3)nc3ccccc23)o1 | inconclusive: 20.2%
40 | CCN1CCC[C@H]1CNC(=O)c1c(O)c(Cl)cc(Cl)c1OC | inconclusive: 24.6%
41 | O=C(Nc1nnc(-c2ccc(F)cc2)o1)c1cccc([N+](=O)[O-])c1 | inconclusive: 30.9%
42 | CCc1nc2c(OCc3c(C)noc3C)cccn2c1N(C=O)Cc1ccc(OC)cc1 | inconclusive: 20.3%
43 | CCCNC(=O)Nc1ccc2c(c1)OC[C@@H](C)N(Cc1ccc(-c3ccccn3)cc1)C[C@@H](C)[C@H](OC)CN(C)C2=O | inactive: 1.84%
44 | C=CC[C@@H](CC(=O)N[C@H](CO)Cc1ccccc1)C(=O)N[C@@H](COC(=O)[C@H](CC=C)CC(=O)OC(C)(C)C)Cc1ccccc1 | active: 78.9%
45 | CC[C@]12c3[nH]c4cc(-c5ccco5)ccc4c3CCN1C(=O)[C@@H](CC(=O)NCCc1ccccn1)C[C@@H]2C(=O)N1CCN(C(=O)C2CC2)CC1 | inconclusive: 48.8%
46 | COc1ccc(NC(=O)CN(C)C(=O)CC2CCCC2)cc1 | active: 20.2%
47 | Cc1ccc(F)cc1C(=O)N1CCCC1(C)C(=O)NCC(C)C (configuration not stated) | inconclusive: 41%
48 | C[C@@H]1CCCCO[C@@H](CN(C)Cc2ccccc2)[C@@H](C)CN([C@H](C)CO)C(=O)c2cc(NC(=O)CCCCCC(=O)Nc3ccccc3N)ccc2O1 | inconclusive: 22.1%

Row | SMILES | CPE inhibition
49 | C[C@H](CO)N1C[C@H](C)[C@@H](CN(C)Cc2ccc3c(c2)OCCN3C)OCc2ccccc2-c2c(n(C)c3ccccc23)C1=O | active: 37.3%
50 | CNC[C@H]1Oc2ccc(NC(=O)NC3CCCCC3)cc2C(=O)N([C@H](C)CO)C[C@@H]1C | inconclusive: 29.7%
51 | CC(=O)N1[C@H](CO)[C@@H](c2ccc(-c3ccccc3)cc2)[C@H]1CNC(=O)C1CC1 | inactive: -7.62%
52 | COc1ccc(N2C(=O)C3CCCN3C2c2ccccc2Cl)cc1 (configuration not stated) | inconclusive: 29.4%
53 | CC1Sc2ccc(C(=O)Nc3ccccc3OC(F)F)cc2NC1=O (configuration not stated) | inconclusive: 25.4%
54 | CCOc1ccc(NC(=O)COc2ccccc2C(=O)NCc2ccccc2)cc1 | inconclusive: 52%
55 | C[C@H](CO)N1C[C@H](C)[C@H](CN(C)Cc2ccc(-c3ccccc3)cc2)Oc2ccc(NC(=O)Nc3ccccc3)cc2CC1=O | inconclusive: 42.2%
56 | CCCN(C)C[C@H]1OCCCC[C@H](C)Oc2ccc(NC(=O)c3ccccc3)cc2C(=O)N([C@@H](C)CO)C[C@H]1C | inconclusive: 73.8%
57 | O=C1CC(C(=O)N2CCN(c3ccccc3)CC2)CN1Cc1ccccc1 (configuration not stated) | inconclusive: 23.9%
58 | CCCC[C@H](CN[C@@H](CNC)[C@H](C)CC)NCCC12CCC(CC1)C2 | inconclusive: 45%
59 | O=C(C1CC1)N1CC2(C1)[C@H](c1ccccc1)[C@H](CO)N2CC1CCCC1 | inconclusive: 21.4%
60 | CCC(=O)N[C@@H]1C=C[C@@H](CC(=O)NCCN2CCCCC2)O[C@@H]1CO | inconclusive: 34.9%
61 | COCC(=O)Nc1ccc2c(c1)C(=O)N(C)[C@@H]1CC[C@H](CC(=O)NCCc3ccccc3)O[C@@H]1CO2 | inconclusive: 31.6%
62 | COC(=O)C[C@@H]1C=C[C@@H](NC(=O)c2ccccc2F)[C@@H](CO)O1 | inconclusive: 43.8%
63 | COc1ccccc1C(=O)CSc1nnc(-c2ccco2)o1 | inconclusive: 31.6%
64 | C[C@H](CO)N1C[C@H](C)[C@@H](CN(C)S(=O)(=O)c2ccc(C(F)(F)F)cc2)OCc2ccccc2-c2c(n(C)c3ccccc23)C1=O | inconclusive: 32.9%
65 | C/C=C/C(=O)Nc1cccc(C2=NOC3(C2)C[C@H](C(N)=O)N(C(=O)/C=C/C)C3)c1 (some centres not stated) | inactive: -6.29%
66 | C(=C\c1ccccc1)/C=N/Nc1nncc(-c2ccccc2)n1 | inconclusive: 26.3%
67 | COc1ccc(-c2cn(CC[C@@H]3CC[C@H](NC(=O)Cc4ccccn4)[C@@H](CO)O3)nn2)cc1 | active: 22.4%
68 | COc1ccccc1-c1noc2ncnc(Nc3cccc(C)c3C)c12 | inactive: 2.01%
69 | O=C(C[C@H]1CC[C@@H](NS(=O)(=O)c2ccc(F)cc2)[C@H](CO)O1)NCCN1CCCCC1 | inconclusive: 23.3%
70 | c1ccc(CCNCCCOc2cccc3ccccc23)cc1 | active: 35.2%
71 | C[C@H](CO)N1C[C@H](C)[C@H](CN(C)C(=O)c2ccccc2)Oc2cc(C3=CCCC3)ccc2S1(=O)=O | active: 27.3%
72 | Clc1cccc(CN2CCN(c3ncc(Cc4ccccc4)cn3)CC2)c1Cl | inconclusive: 35.7%
